Experimental data as given in the supplement of paper PMC10849652.
This is one part of the list.

Sequences of proteins named here, by UniProt entry; tags and fusion partners are left off. A change or cut given only in a name is not applied to a line headed by its entry.
UniProt P13010: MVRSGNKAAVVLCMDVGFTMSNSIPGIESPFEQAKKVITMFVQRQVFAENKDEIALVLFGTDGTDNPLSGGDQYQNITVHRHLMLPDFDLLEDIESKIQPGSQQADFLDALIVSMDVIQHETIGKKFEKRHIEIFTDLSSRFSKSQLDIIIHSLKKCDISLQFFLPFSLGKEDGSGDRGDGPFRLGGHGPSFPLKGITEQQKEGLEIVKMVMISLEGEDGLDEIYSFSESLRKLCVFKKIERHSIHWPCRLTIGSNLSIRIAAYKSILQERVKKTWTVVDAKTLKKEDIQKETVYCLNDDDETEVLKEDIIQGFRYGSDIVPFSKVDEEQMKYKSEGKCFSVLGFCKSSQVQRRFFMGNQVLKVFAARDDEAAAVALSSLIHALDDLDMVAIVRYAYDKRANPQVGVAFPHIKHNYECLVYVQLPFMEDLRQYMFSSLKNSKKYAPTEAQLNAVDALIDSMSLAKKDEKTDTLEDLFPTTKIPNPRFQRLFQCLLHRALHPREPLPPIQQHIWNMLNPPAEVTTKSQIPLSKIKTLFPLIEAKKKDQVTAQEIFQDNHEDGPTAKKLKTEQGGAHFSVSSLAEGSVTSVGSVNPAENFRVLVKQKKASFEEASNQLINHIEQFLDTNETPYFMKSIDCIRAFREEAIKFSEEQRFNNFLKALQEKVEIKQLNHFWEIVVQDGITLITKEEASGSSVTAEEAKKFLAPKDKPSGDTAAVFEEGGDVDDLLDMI
UniProt P54577: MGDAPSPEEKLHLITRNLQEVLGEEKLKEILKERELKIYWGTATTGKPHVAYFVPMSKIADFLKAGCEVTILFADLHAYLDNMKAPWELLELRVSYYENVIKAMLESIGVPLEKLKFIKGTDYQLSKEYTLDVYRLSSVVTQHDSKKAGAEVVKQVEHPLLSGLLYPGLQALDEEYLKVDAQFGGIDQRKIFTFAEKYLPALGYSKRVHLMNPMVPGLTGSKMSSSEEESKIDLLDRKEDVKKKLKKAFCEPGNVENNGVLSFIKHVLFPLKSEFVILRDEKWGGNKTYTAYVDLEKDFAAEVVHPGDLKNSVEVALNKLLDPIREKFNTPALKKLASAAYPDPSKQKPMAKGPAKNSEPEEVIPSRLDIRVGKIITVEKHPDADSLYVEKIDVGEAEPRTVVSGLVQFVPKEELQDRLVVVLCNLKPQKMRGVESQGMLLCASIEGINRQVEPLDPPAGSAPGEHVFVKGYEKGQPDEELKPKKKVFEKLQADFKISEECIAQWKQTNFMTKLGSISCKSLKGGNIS
UniProt Q8IX07: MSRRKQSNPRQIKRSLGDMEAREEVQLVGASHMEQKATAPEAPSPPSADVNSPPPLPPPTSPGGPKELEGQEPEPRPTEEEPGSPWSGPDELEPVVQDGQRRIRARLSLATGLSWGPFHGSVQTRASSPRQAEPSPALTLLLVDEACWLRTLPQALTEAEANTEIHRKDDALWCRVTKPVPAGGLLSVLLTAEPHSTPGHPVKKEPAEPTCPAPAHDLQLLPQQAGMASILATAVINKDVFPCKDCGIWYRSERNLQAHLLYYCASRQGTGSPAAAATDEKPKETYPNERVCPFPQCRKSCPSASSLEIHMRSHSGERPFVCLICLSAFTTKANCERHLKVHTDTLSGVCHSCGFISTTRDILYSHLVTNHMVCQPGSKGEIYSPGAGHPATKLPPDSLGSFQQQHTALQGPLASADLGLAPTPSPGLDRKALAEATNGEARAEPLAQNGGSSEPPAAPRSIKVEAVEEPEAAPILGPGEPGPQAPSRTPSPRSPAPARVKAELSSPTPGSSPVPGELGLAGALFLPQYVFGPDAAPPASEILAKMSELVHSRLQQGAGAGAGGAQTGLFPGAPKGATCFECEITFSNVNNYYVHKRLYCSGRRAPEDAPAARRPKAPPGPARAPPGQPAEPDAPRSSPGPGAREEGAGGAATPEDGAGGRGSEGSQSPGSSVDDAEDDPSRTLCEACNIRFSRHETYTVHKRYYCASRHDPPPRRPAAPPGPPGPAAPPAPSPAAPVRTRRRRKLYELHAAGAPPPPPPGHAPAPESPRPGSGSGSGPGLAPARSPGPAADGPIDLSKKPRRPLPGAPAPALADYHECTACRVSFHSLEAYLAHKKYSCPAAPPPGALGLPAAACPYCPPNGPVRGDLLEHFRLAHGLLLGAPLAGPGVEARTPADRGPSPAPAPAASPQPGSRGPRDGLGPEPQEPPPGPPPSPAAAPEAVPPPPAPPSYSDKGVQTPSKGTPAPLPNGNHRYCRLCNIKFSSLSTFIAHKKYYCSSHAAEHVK
UniProt O95365: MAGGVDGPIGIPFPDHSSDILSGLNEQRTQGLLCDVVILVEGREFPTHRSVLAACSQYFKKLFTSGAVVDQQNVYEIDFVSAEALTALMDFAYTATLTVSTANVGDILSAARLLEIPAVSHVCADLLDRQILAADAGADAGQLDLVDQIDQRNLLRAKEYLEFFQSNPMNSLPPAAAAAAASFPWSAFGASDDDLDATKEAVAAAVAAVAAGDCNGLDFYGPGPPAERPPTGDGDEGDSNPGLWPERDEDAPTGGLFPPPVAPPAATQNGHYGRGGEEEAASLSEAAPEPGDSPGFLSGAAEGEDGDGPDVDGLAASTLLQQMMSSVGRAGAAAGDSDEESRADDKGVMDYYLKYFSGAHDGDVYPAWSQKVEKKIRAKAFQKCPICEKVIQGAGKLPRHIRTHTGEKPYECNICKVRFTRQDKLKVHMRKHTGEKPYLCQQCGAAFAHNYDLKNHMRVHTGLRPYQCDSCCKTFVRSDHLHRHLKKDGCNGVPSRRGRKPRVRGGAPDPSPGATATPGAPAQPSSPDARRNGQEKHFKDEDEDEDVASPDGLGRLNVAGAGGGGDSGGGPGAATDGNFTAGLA
UniProt Q5SVZ6: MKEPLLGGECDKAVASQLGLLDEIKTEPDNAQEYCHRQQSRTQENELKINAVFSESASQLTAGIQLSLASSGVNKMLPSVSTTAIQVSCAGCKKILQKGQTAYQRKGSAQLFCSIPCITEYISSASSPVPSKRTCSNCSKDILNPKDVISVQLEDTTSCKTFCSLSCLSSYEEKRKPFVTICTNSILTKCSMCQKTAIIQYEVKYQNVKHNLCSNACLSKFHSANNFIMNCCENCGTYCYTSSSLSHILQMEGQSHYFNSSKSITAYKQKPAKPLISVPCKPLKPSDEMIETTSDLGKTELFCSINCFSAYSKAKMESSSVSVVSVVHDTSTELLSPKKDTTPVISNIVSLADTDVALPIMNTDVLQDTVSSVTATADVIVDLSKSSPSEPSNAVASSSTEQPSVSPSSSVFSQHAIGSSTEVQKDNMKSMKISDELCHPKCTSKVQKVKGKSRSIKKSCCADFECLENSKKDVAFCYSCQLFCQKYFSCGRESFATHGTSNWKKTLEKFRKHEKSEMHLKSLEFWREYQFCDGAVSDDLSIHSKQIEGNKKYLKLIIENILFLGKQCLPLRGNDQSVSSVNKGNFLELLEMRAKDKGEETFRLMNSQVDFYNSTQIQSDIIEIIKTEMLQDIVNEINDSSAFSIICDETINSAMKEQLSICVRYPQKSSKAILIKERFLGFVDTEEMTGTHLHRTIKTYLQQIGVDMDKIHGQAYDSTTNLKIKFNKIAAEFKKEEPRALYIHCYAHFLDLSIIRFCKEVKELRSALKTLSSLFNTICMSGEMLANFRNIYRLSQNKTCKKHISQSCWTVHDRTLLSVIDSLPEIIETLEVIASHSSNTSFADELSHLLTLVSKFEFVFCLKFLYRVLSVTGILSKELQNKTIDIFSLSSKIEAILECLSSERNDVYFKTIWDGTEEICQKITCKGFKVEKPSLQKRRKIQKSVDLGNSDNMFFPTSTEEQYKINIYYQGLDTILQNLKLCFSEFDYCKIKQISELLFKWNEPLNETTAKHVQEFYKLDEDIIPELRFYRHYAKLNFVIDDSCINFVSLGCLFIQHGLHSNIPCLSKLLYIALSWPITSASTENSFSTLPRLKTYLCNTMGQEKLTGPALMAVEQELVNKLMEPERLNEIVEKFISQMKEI
UniProt Q6FIF0: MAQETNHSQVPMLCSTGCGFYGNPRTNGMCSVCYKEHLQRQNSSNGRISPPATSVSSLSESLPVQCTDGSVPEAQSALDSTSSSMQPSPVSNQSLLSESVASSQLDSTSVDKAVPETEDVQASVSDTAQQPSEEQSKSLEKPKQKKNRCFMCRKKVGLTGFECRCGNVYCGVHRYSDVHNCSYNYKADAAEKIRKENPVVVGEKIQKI
UniProt Q9NUE0: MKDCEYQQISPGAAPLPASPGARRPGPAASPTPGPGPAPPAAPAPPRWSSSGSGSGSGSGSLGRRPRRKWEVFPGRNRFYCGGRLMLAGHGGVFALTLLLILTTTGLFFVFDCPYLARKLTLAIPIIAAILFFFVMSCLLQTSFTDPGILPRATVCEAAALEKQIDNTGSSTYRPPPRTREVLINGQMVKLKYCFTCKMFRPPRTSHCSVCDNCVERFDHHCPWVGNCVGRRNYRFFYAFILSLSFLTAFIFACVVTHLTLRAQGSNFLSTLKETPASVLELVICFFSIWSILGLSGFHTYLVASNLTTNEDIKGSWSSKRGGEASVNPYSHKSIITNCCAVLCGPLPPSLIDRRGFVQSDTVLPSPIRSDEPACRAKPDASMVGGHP
UniProt Q96QU8: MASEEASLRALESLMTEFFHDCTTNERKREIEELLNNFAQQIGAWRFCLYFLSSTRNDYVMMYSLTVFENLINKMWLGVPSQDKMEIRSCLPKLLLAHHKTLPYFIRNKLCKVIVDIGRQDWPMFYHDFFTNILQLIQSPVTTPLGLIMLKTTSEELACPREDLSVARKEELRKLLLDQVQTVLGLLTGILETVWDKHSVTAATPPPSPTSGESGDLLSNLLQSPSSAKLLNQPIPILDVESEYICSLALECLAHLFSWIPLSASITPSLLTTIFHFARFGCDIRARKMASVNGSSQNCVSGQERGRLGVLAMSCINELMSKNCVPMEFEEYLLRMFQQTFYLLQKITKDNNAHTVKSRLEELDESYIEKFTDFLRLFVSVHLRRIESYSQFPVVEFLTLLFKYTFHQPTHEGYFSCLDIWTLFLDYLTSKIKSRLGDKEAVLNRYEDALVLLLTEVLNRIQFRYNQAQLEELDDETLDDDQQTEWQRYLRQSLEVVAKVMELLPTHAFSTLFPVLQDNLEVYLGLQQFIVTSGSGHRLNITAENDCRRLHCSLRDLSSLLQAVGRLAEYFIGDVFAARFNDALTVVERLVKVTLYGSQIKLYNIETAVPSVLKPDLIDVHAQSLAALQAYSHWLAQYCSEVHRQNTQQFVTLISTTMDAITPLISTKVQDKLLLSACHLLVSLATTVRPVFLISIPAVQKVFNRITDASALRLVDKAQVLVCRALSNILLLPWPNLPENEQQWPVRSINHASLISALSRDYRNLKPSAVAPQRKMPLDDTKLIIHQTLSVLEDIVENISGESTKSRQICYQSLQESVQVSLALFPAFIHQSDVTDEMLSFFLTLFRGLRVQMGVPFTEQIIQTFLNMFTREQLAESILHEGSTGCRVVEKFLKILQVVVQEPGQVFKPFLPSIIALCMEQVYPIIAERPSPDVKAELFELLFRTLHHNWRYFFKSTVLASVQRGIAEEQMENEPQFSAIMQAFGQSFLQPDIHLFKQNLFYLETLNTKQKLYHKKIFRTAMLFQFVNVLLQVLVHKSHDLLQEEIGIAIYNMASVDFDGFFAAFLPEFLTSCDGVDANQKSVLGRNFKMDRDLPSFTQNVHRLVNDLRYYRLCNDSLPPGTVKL
UniProt P17028: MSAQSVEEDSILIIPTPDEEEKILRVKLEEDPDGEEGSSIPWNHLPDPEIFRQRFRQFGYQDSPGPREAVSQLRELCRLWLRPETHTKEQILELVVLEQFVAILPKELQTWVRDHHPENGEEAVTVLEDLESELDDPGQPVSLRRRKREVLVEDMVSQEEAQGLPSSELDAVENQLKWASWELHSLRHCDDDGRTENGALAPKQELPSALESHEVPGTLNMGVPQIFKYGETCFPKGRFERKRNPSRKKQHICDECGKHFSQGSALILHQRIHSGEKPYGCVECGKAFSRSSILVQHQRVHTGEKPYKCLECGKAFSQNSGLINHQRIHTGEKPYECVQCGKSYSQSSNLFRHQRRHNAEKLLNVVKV
UniProt Q9NQH7: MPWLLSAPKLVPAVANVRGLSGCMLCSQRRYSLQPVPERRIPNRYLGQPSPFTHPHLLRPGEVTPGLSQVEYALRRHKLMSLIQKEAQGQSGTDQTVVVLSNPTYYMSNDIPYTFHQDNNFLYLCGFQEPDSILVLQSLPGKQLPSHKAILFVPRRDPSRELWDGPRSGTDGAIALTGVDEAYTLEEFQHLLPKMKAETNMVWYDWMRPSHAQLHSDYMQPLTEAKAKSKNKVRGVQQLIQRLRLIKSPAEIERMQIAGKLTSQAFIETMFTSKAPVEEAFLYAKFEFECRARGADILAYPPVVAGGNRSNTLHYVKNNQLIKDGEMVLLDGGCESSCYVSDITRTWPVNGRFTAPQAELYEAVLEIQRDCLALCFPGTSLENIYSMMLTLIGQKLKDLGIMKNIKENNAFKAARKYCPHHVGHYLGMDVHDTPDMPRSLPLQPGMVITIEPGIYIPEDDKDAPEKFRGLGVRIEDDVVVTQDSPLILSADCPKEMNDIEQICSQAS

What was measured:
Assay in all cases: log2 fold change, soluble protein after heating vs DMSO (PISA); higher = thermal stabilisation; K562 cells, 10 uM, 30 min; active = over 0.2 and 3.5 SD of the protein, either way, in both replicates (recomputed)
[1] = compound: CN1CCN(CCOc2cc(OC3CCOCC3)c3c(Nc4c(Cl)ccc5c4OCO5)ncnc3c2)CC1 [saracatinib]
Outline: (§1)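 K562 cells at 2×10^6 cells/mL were treated with 10 μM compound for 30 min. Aliquots were heated for 3 min across 48°C-58°C, pooled, and extracted in PBS with 0.5% NP-40 at 4°C; soluble protein was the supernatant after 21,000xg for 90 min. Soluble protein was quantified by TMTpro 16plex LC-MS/MS with channel sums equalised, and reported as log2 fold change in thermal stability against DMSO controls, with values from duplicates.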

[2] = compound: CN1CCN(c2nc(C3=C(c4c[nH]c5ccccc45)C(=O)NC3=O)c3ccccc3n2)CC1 [sotrastaurin]
Outline: as §1

[3] = compound: CN1CCc2c(c3ccccc3n2Cc2ccc(C(=O)NO)cc2)C1 [Tubastatin A]
Outline: as §1

[4] = compound: CNC(=O)C1=CC=CC=C1NC2=NC(=NC=C2Cl)NC3=C(C=C(C=C3)N4CCOCC4)OC
Outline: as §1

[5] = compound: CNC(=O)c1ccc(Nc2ncc(C(F)(F)F)c(NCc3nccnc3N(C)S(C)(=O)=O)n2)cc1 [defactinib]
Outline: as §1

[6] = compound: CNCc1ccc(-c2[nH]c3cc(F)cc4c3c2CCNC4=O)cc1 [rucaparib]
Outline: as §1

[7] = compound: CNc1nc(-c2ccc3c(N)n[nH]c3c2)cc(N2C[C@@H](C(=O)NC3CCCCC3)CC[C@H]2C)n1
Outline: as §1

[8] = compound: COC(=O)N[C@@H](C)CNc1nccc(-c2cn(C(C)C)nc2-c2cc(Cl)cc(NS(C)(=O)=O)c2F)n1 [encorafenib]
Outline: as §1

[9] = compound: COC(=O)[C@H](CCSC)NC(=O)C1=C(C=C(C=C1)NC[C@H](CS)N)C2=CC=CC=C2
Outline: as §1

[10] = compound: COC1=CC=C(C=C1)CN2C=CC3=C2C=C(C=C3)C(=O)NO
Outline: as §1

[11] = compound: CON(C)C(=O)N1N=C(c2cc(F)ccc2F)S[C@@]1(CCCN)c1ccccc1 [filanesib]
Outline: as §1

[12] = compound: CO[C@H]1C[C@@H]2CC[C@@H](C)[C@@](O)(O2)C(=O)C(=O)N2CCCC[C@H]2C(=O)O[C@H]([C@H](C)C[C@@H]2CC[C@H](n3cnnn3)[C@H](OC)C2)CC(=O)[C@H](C)/C=C(\C)[C@@H](O)[C@@H](OC)C(=O)[C@H](C)C[C@H](C)/C=C/C=C/C=C/1C [zotarolimus]
Outline: as §1

[13] = compound: COc1cc(C(=O)O)ccc1NC(=O)[C@@H]1N[C@@H](CC(C)(C)C)[C@](C#N)(c2ccc(Cl)cc2F)[C@H]1c1cccc(Cl)c1F [idasanutlin]
Outline: as §1

[14] = compound: COc1cc(Nc2ncc3c(n2)-c2ccc(Cl)cc2C(c2c(F)cccc2OC)=NC3)ccc1C(=O)O [alisertib]
Outline: as §1

[15] = compound: COc1cc2nc(-c3cc(F)ccc3O)nc(N[C@@H]3CNC[C@H]3C(C)(C)O)c2cc1OC
Outline: as §1

[16] = compound: COc1cc2ncnc(Nc3ccc(F)c(Cl)c3)c2cc1OCCCN1CCOCC1 [gefitinib]
Outline: as §1

[17] = compound: COc1cccc2cc(-c3nc([C@H]4CC[C@H](C(=O)O)CC4)n4ncnc(N)c34)[nH]c12
Outline: as §1

[18] = compound: CS(=O)(=O)CCNCc1ccc(-c2ccc3ncnc(Nc4ccc(OCc5cccc(F)c5)c(Cl)c4)c3c2)o1 [lapatinib]
Outline: as §1

[19] = compound: CS(=O)(=O)N1CCN(Cc2cc3nc(-c4cccc5[nH]ncc45)nc(N4CCOCC4)c3s2)CC1 [pictilisib]
Outline: as §1

[20] = compound: CN1CC[C@H](c2c(O)cc(O)c3c(=O)cc(-c4ccccc4Cl)oc23)[C@H](O)C1 [alvocidib]
Outline: as §1

Measured: log2 fold change

XRCC5 (UniProt P13010)
inactive: [1] -0.057 | [2] -0.332 | [3] 0.173 | [4] -0.032 | [5] -0.37 | [6] 0.07 | [7] 0.048 | [8] 0.21 | [9] -0.067 | [10] 0.19 | [11] -0.049 | [12] 0.087 | [13] 0.014 | [14] 0.061 | [15] -0.232 | [16] 0.076 | [17] -0.087 | [18] 0.024 | [19] -0.047

XPNPEP1 isoform 3 (UniProt Q9NQW7)
inactive: [1] 0.002 | [2] -0.005 | [3] -0.125 | [4] -0.027 | [5] -0.07 | [6] -0.033 | [7] -0.012 | [8] -0.008 | [10] 0.006 | [11] -0.121 | [12] 0.026 | [13] -0.023 | [14] 0.028 | [15] -0.009 | [16] 0.004 | [17] 0.038 | [18] 0.01 | [19] 0.068
active: [9] 0.352

YARS (UniProt P54577)
inactive: [1] -0.088 | [2] -0.133 | [20] -0.026 | [3] 0.018 | [4] 0.024 | [5] -0.051 | [6] 0.156 | [7] 0.046 | [8] 0.115 | [9] -0.062 | [10] -0.022 | [11] -0.017 | [12] 0.058 | [13] -0.032 | [14] -0.037 | [15] 0.021 | [16] 0.023 | [17] -0.101 | [18] 0.005 | [19] -0.017

ZFPM1 (UniProt Q8IX07)
inactive: [1] 0.131 | [2] 0.008 | [20] -0.109 | [3] 0.135 | [4] -0.027 | [5] -0.068 | [6] -0.038 | [7] -0.141 | [8] -0.009 | [9] 0.093 | [11] 0.016 | [12] -0.028 | [15] 0.076 | [16] -0.154 | [18] -0.144

XPR1 (UniProt Q9UBH6)
inactive: [1] 0.006 | [2] -0.014 | [20] -0.022 | [3] 0.025 | [4] 0 | [5] -0.023 | [6] 0 | [7] 0.002 | [8] 0.045 | [9] 0.002 | [10] -0.056 | [11] 0.072 | [12] -0.002 | [13] -0.009 | [14] -0.067 | [15] 0.007 | [16] 0.001 | [17] 0.013 | [18] 0.016 | [19] 0.07

YWHAQ (UniProt P27348)
inactive: [1] 0.234 | [2] -0.043 | [3] -0.026 | [4] 0.049 | [5] 0 | [6] -0.016 | [7] 0.179 | [8] -0.016 | [9] 0.019 | [10] 0.3 | [11] -0.086 | [12] 0.196 | [13] -0.084 | [14] -0.001 | [15] -0.148 | [16] 0.007 | [17] -0.098 | [18] 0.219 | [19] -0.142

ZBTB7A (UniProt O95365)
inactive: [1] -0.024 | [2] -0.054 | [20] 0.18 | [3] 0.171 | [4] 0.245 | [6] -0.001 | [7] -0.09 | [8] 0.05 | [10] 0.062 | [11] 0.164 | [12] 0.178 | [13] -0.111 | [15] -0.066 | [16] 0.006 | [18] 0.121

XK (UniProt P51811)
inactive: [1] -0.032 | [2] 0.044 | [20] 0.003 | [4] 0.023 | [5] -0.053 | [6] 0.03 | [7] 0.007 | [8] -0.112 | [9] 0.115 | [10] 0.024 | [11] 0.13 | [12] -0.126 | [13] 0.03 | [14] 0.116 | [15] 0.117 | [16] 0.036 | [17] -0.148 | [18] -0.046 | [19] -0.16

ZMYM1 (UniProt Q5SVZ6)
inactive: [1] -0.024 | [2] 0.027 | [3] 0.071 | [4] -0.082 | [6] 0.331 | [7] -0.021 | [8] 0.082 | [9] 0.026 | [10] -0.056 | [11] 0.067 | [12] -0.05 | [13] 0.085 | [14] -0.021 | [15] 0.004 | [16] 0.014 | [17] -0.128 | [18] 0.082 | [19] -0.018
active: [5] 0.558

ZFAND6 (UniProt Q6FIF0)
active: [6] -0.241
inactive: [1] -0.035 | [2] 0.13 | [3] 0.144 | [4] -0.015 | [5] -0.045 | [7] -0.017 | [8] -0.019 | [9] 0.061 | [10] 0.066 | [11] -0.111 | [12] -0.045 | [13] -0.096 | [14] -0.079 | [15] 0.017 | [16] -0.005 | [17] 0.046 | [18] -0.106 | [19] 0.063

ZDHHC18 (UniProt Q9NUE0)
inactive: [1] 0.16 | [2] -0.041 | [20] -0.038 | [3] -0.027 | [4] 0.057 | [6] -0.15 | [7] 0.138 | [8] -0.089 | [10] 0.083 | [11] -0.023 | [12] -0.051 | [13] 0.018 | [14] -0.034 | [15] 0.05 | [16] -0.104 | [17] 0.067 | [18] 0.038 | [19] 0.158

XPO6 (UniProt Q96QU8)
inactive: [1] -0.012 | [2] -0.119 | [3] -0.009 | [4] 0.036 | [5] -0.104 | [6] 0.076 | [7] 0.037 | [8] 0.015 | [9] -0.03 | [10] -0.453 | [11] -0.074 | [12] 0.047 | [13] -0.079 | [14] 0.171 | [15] 0.064 | [16] -0.029 | [17] -0.052 | [18] -0.055 | [19] -0.025

2 entries picked at random from those above:
ZFPM1 (UniProt Q8IX07)
inactive: [1] 0.131 | [2] 0.008 | [20] -0.109 | [3] 0.135 | [4] -0.027 | [5] -0.068 | [6] -0.038 | [7] -0.141 | [8] -0.009 | [9] 0.093 | [11] 0.016 | [12] -0.028 | [15] 0.076 | [16] -0.154 | [18] -0.144

XRCC5 (UniProt P13010)
inactive: [1] -0.057 | [2] -0.332 | [3] 0.173 | [4] -0.032 | [5] -0.37 | [6] 0.07 | [7] 0.048 | [8] 0.21 | [9] -0.067 | [10] 0.19 | [11] -0.049 | [12] 0.087 | [13] 0.014 | [14] 0.061 | [15] -0.232 | [16] 0.076 | [17] -0.087 | [18] 0.024 | [19] -0.047

Following part:

XRCC6 (UniProt P12956)
inactive: [1] -0.013 | [2] -0.114 | [3] 0.099 | [4] -0.047 | [6] -0.007 | [7] -0.015 | [8] 0.048 | [9] -0.041 | [10] 0.006 | [11] -0.021 | [12] 0.058 | [13] -0.059 | [14] -0.014 | [15] -0.097 | [16] -0.01 | [17] -0.008 | [18] 0.013 | [19] -0.024
active: [5] -0.264

ZC3H7B (UniProt Q9UGR2)
inactive: [1] -0.196 | [2] -0.08 | [20] 0.224 | [3] 0.2 | [6] 0.378 | [7] 0.164 | [8] 0.401 | [10] -0.119 | [11] 0.727 | [12] 0.087 | [14] -0.273 | [17] -0.302 | [19] -0.163

YWHAB (UniProt P31946)
inactive: [1] 0.014 | [2] 0.031 | [3] -0.014 | [4] 0.019 | [5] -0.022 | [6] -0.078 | [7] -0.015 | [8] -0.003 | [9] 0.016 | [10] -0.028 | [11] -0.044 | [12] 0.015 | [13] -0.053 | [14] 0.012 | [15] -0.062 | [16] -0.001 | [17] 0.014 | [18] -0.016 | [19] 0.002

ZNF24 (UniProt P17028)
inactive: [1] 0.007 | [2] 0.051 | [20] 0.031 | [3] 0.134 | [4] 0.021 | [5] -0.022 | [6] 0.161 | [7] 0.061 | [8] 0.058 | [9] 0.053 | [10] -0.05 | [11] 0.131 | [12] -0.021 | [13] 0.158 | [14] -0.272 | [15] -0.012 | [16] -0.163 | [17] -0.156 | [18] 0.179 | [19] -0.069

XPNPEP3 (UniProt Q9NQH7)
inactive: [1] 0.022 | [2] -0.017 | [3] -0.021 | [4] 0 | [5] -0.033 | [6] -0.018 | [7] -0.035 | [8] -0.005 | [9] 0.038 | [10] -0.12 | [11] -0.082 | [12] -0.021 | [13] -0.032 | [14] -0.011 | [15] 0.027 | [16] -0.002 | [17] 0.078 | [18] -0.024 | [19] 0.027
